Target: T1, human NaX-QTT (Homo sapiens, UniProt Q01118, F724Q/I1189T/I1492T)
T1 construct: expressed in transfected cells; host or cells: Xenopus laevis oocytes injected with in vitro transcribed capped RNA
Experiment: Two-electrode voltage-clamp of Xenopus laevis oocytes expressing human NaX-QTT with blockers or multivalent cations
Format: cell-based
Procedure: FIGS. 5A-C show pharmacology of the human NaX-QTT channel. FIG. 5A, left and middle panels, show representative I-V currents from HEK293 cells expressing human NaX-QTT with indicated extracellular monovalent cations with or without indicated amounts of CaCl2 in the extracellular solution. Voltage ramp from −80 to +80 mV was applied.
Oocytes were prepared as previously described^68. Healthy-looking stage V-VI oocytes were injected with 2.5-40 ng of RNA (in 5-41 nL) using a Nanoliter 2010 injector (World Precision Instruments). When excluding one or more construct, an equivalent volume of nuclease-free water was added to maintain a constant RNA concentration across different construct combinations. Injected oocytes were kept at 18° C., 140 rpm, in ND96 supplemented with 50 μg/mL gentamicin and 50 μg/mL tetracycline (in mM: 96 NaCl, 2 KCl, 1 MgCl2, 1.8 CaCl2), 2.5 sodium pyruvate, 0.5 theophylline, 5 HEPES; pH 7.4 with NaOH) for two to five days. […] The voltage dependence of ion current was determined using a protocol consisting of steps from a holding potential of 0 mV to voltages ranging from +80 to −100 mV for 1 s in 20 mV increment.

Protein sequences, listed by entry. Tags and fused reporters are not part of them.
UniProt Q01118, whole entry F724Q/I1189T/I1492T: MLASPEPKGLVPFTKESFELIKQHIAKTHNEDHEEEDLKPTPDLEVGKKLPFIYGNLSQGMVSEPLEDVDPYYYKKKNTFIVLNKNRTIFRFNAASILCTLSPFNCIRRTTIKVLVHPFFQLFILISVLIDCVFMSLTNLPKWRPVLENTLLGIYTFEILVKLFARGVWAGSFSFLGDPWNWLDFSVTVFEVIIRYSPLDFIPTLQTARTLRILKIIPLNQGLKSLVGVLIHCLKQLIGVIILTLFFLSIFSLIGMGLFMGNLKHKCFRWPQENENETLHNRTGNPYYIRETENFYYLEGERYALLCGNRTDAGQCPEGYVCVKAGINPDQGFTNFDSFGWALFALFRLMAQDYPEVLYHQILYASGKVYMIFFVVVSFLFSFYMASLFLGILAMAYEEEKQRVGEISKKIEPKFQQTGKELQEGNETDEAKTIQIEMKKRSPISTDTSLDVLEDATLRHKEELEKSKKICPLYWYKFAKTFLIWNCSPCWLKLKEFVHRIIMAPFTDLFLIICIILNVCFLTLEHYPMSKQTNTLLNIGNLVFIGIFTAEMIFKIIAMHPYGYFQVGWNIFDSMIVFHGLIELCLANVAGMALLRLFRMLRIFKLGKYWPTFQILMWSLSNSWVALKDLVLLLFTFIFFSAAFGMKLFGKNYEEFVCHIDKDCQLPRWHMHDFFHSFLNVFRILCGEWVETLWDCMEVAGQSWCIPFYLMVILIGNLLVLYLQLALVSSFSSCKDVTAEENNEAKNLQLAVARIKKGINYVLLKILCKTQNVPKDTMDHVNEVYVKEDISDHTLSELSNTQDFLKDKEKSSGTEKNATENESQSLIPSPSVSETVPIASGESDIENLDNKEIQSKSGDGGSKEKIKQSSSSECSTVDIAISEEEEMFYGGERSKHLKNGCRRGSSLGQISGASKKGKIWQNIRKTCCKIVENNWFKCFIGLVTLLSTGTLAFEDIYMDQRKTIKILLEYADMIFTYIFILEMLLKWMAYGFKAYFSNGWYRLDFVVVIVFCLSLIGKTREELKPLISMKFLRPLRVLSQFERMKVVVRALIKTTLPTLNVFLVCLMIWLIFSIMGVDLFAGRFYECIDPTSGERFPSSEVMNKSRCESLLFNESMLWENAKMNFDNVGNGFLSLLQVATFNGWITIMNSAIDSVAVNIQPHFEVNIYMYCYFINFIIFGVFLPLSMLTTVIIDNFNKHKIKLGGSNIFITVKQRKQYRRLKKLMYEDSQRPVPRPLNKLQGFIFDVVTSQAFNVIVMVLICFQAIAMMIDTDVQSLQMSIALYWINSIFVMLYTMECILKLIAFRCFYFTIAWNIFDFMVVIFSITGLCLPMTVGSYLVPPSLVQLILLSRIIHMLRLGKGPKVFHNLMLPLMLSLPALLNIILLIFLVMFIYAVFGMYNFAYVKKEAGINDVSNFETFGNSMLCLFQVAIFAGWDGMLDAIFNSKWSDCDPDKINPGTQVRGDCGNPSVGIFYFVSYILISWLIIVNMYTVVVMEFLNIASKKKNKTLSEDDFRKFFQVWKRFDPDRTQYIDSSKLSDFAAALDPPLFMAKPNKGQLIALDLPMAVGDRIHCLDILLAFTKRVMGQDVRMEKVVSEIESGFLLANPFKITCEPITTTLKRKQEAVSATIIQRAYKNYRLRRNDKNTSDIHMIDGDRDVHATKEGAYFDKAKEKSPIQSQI

CCN(CC)CC(=O)Nc1c(C)cccc1C [lidocaine]
block of NaX-QTT currents: effective at blocking

Reference: patent publication US20250164502A1, “Mutant Human Nax Proteins and Screening Methods” (Genentech, Inc., priority 2021, published 2025)
